# Reference: PubChem BioAssay AID2417 (National Center for Advancing Translational Sciences (NCATS), 2010)
# The whole screen tested about 140,000 compounds, of which about 4,300 (3.1%) were called active. Inconclusive results, whose numbers are uncertain, are shown with a selection of clear calls.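 How the source made its calls: active means readout at or below -70, meaning at least 70% loss of cells showing the perinucleolar compartment, a nuclear body marking cancer cells; inconclusive means readout between -30 and a set limit; inactive means the rest.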
# Experiment: High Content Assay for Compounds that inhibit the Assembly of the Perinucleolar Compartment;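 further: plate controls were DMSO wells for no effect and camptothecin positive control wells for full effect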
# Conditions: PC3M PTB-GFP, PNC prevalence imaging, 16 h; at 10 µM; active compounds read low
# Outline: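 Compounds are pinned in duplicate onto adhered PC3M cells stably expressing GFP-tagged PTB and incubated 16 h at 37 C. Cells are then fixed, nuclei stained with Hoechst, and PNC-positive cells counted.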
row,Compound,"activity change (PNC), negative = inhibition"
1,CCCCC(CC)CNC(=O)C1CC=CCC1C(=O)O (configuration not stated),inactive: -1.97%
2,Cc1ccc(NC(=O)C2C3C=CC4(CN(Cc5cccnc5)C(=O)C24)O3)cc1F (configuration not stated),inconclusive: -64.3%
3,Cc1ccc(-c2csc(N(Cc3ccccc3)C(=O)COc3ccccc3)n2)cc1,inconclusive: -45.3%
4,Cc1ccc(N2CC(C(=O)OCc3ccccc3F)CC2=O)cc1 (configuration not stated),inconclusive: -30.8%
5,O=C(Cc1ccc(Br)cc1)N1CCN(c2ccccn2)CC1,inconclusive: -46.6%
6,CCOC(=O)c1ccc(NC(=O)CSc2nccn2C)cc1,inactive: 36.3%
7,CCOC(=O)CSc1nnc(NC(=O)c2cccc([N+](=O)[O-])c2)s1,inconclusive: -41.2%
8,O=C(CN(c1ccc2c(c1)OCCO2)S(=O)(=O)c1ccccc1)Nc1ccc2c(c1)OCO2,inconclusive: -66.6%
9,Cn1c(=O)c2c(nc(NCC3CCCO3)n2Cc2cccc(Br)c2)n(C)c1=O (configuration not stated),inactive: -29%
10,COC(=O)c1cccc(NC(=O)Cn2nnc3ccccc32)c1,inconclusive: -64.7%
11,C=CCSC1=C(C#N)C(c2ccccc2Cl)CC(=O)N1 (configuration not stated),inactive: 18%
12,CC1=NN(c2ccc(Cl)cc2)C(=O)/C1=C\c1cccn1-c1ccc(S(N)(=O)=O)cc1,inactive: 58.5%
13,C=CCOC(=O)C1=C(C)OC(N)=C(C#N)C1c1c(C)nn(-c2ccccc2)c1Cl (configuration not stated),inconclusive: -45.3%
14,O=C(NCc1ccc(Cl)cc1)c1cccc(NC(=O)c2ccccc2)c1,active: -100%
15,Cc1ccccc1N1CC(c2nc3ccccc3[nH]2)CC1=O (configuration not stated),inconclusive: -31.6%
16,CCN1C(=O)CSc2ccc(C(=O)OC)cc21,inactive: 51.4%
17,CC(C)CN1C(=O)c2ccc(C(=O)Nc3nccs3)cc2C1=O,inconclusive: -75.4%
18,CCOC(=O)c1[nH]c(C)c(CCC(=O)OC)c1C,inconclusive: -47.3%
19,CC(C)(C)C1=Nn2c(nnc2-c2n[nH]c3c2CCC3)SC1,inconclusive: -36.3%

# A draw from above in order of molecular weight, falling:
row,Compound,"activity change (PNC), negative = inhibition"
9,Cn1c(=O)c2c(nc(NCC3CCCO3)n2Cc2cccc(Br)c2)n(C)c1=O (configuration not stated),inactive: -29%
3,Cc1ccc(-c2csc(N(Cc3ccccc3)C(=O)COc3ccccc3)n2)cc1,inconclusive: -45.3%
13,C=CCOC(=O)C1=C(C)OC(N)=C(C#N)C1c1c(C)nn(-c2ccccc2)c1Cl (configuration not stated),inconclusive: -45.3%
2,Cc1ccc(NC(=O)C2C3C=CC4(CN(Cc5cccnc5)C(=O)C24)O3)cc1F (configuration not stated),inconclusive: -64.3%
14,O=C(NCc1ccc(Cl)cc1)c1cccc(NC(=O)c2ccccc2)c1,active: -100%
5,O=C(Cc1ccc(Br)cc1)N1CCN(c2ccccn2)CC1,inconclusive: -46.6%
17,CC(C)CN1C(=O)c2ccc(C(=O)Nc3nccs3)cc2C1=O,inconclusive: -75.4%
10,COC(=O)c1cccc(NC(=O)Cn2nnc3ccccc32)c1,inconclusive: -64.7%
19,CC(C)(C)C1=Nn2c(nnc2-c2n[nH]c3c2CCC3)SC1,inconclusive: -36.3%
15,Cc1ccccc1N1CC(c2nc3ccccc3[nH]2)CC1=O (configuration not stated),inconclusive: -31.6%
1,CCCCC(CC)CNC(=O)C1CC=CCC1C(=O)O (configuration not stated),inactive: -1.97%
16,CCN1C(=O)CSc2ccc(C(=O)OC)cc21,inactive: 51.4%

# Next compounds

row,Compound,"activity change (PNC), negative = inhibition"
1,COc1ccc2nc(Cl)c(C3CC(c4ccco4)=NN3C(=O)CCC(=O)O)cc2c1 (configuration not stated),inconclusive: -76.9%
2,CCOc1ccc(NC2=NCC(=O)N2Cc2cccs2)cc1,active: -105%
3,CCN(CC)C(=O)C1CCN(S(=O)(=O)c2ccc(C3CNC(=O)C3)cc2)CC1 (configuration not stated),inconclusive: -35.1%
4,CC1=C(C(=O)Nc2ccccn2)C(c2ccc(N(C)C)cc2)n2ncnc2N1 (configuration not stated),inconclusive: -39.7%
5,COc1ccc(C2C3=C(Nc4ncnn42)c2ccccc2CCC3)cc1 (configuration not stated),inconclusive: -54.3%
6,O=C(CN1CCC(NC(=O)c2ccco2)CC1)Nc1cccc2ccccc12,active: -100%
7,Cc1c(Cl)c([N+](=O)[O-])nn1CCCC(=O)Nc1cc(Cl)ccc1Cl,inconclusive: -48.9%
8,Cc1occc1C(=O)n1cnc2ccccc21,inconclusive: -47.7%
9,O=C(Nc1nnc(C2CC2)s1)c1cc2c(s1)CCCCCC2,inconclusive: -30.3%
10,CCc1ccc(-c2ccc(C(=O)C(F)(F)F)[nH]2)cc1,inconclusive: -44.3%
11,Cc1ccc(S(=O)(=O)N2CCC(=O)N(C(COCc3ccccc3)C(C)C)CC2)cc1 (configuration not stated),inactive: 22%
12,CCOC(=O)C1CCCN(C(=O)c2ccc3c(=O)n(CCOC)c(=S)[nH]c3c2)C1 (configuration not stated),inconclusive: -37.8%
13,CCCOC(=O)c1ccc(OC(=O)c2ccco2)cc1,inconclusive: -70.2%
14,CCOc1ccc(NC(=O)CN2CCN(CC(=O)Nc3ccc(Cl)c(C(F)(F)F)c3)CC2)cc1,inconclusive: -41.2%
15,CC1CCN(c2ccc(/C=N/n3nnnc3N)cc2[N+](=O)[O-])CC1,inconclusive: -68.7%
16,O=[N+]([O-])c1cccc(/C=N\N=C2c3ccccc3-c3ccccc32)c1O,inconclusive: -56.2%
17,CSCCC(NC(=O)c1cc(C(C)(C)C)oc1C)C(=O)O (configuration not stated),inconclusive: -43.7%
18,CN1c2ccccc2C(O)=C(C(=S)Nc2ccc(F)c(Cl)c2)S1(=O)=O,inconclusive: -41.8%
19,CC1(C)OC2OC(C(=O)N/N=C/c3cc(Br)ccc3O)C3OC(C)(C)OC3C2O1 (configuration not stated),inconclusive: -44.6%

row,Compound,"activity change (PNC), negative = inhibition"
1,Cc1ccc(NC(=O)/C=C/c2ccc([N+](=O)[O-])s2)cc1,inactive: -17%
2,CCn1c(=O)cc(SCC(=O)Nc2ccc3c(c2)OCCO3)c2ccccc21,inconclusive: -36%
3,CCOc1ccc(C(=O)NCC(C)C)cc1,inactive: 7.32%
4,COCCN1C(=O)c2oc3c(C)cc(C)cc3c(=O)c2C1c1cccc(O)c1 (configuration not stated),inconclusive: -57.4%
5,Fc1ccc(-c2cc(C(F)(F)F)nc(NCc3cccs3)n2)cc1,active: -113%
6,Cc1onc(-c2ccccc2)c1C(=O)NCc1ccc2c(c1)OCO2,inconclusive: -61.6%
7,CCN(CC)S(=O)(=O)c1ccc(OC)c(NC(=O)C(C)Oc2ccc3c(C)cc(=O)oc3c2)c1 (configuration not stated),inconclusive: -51.4%
8,COC(=O)c1ccc(OCC(=O)c2ccccc2OC)cc1,inconclusive: -32.4%
9,CC(C)Oc1ccc(CC(=O)NNC(=S)Nc2ccc(Br)cc2)cc1,active: -113%
10,O=C1NC(=O)C2C3c4ccccc4C(c4ccccc43)C12 (configuration not stated),inactive: -8.9%
11,COc1cc(/C=N/NC(=O)c2cccnc2)ccc1OS(=O)(=O)c1ccc(F)cc1,inactive: -4.25%
12,CCOC(=O)c1ccc2nc(C(F)(F)F)[nH]c(=O)c2c1,inconclusive: -55.8%
13,CC(C)NCC(O)COCCOc1ccc(Br)cc1 (configuration not stated),inconclusive: -47.3%
14,CC(C(=O)Nc1ccc2c(c1)OCO2)N(c1ccc(Cl)cc1)S(C)(=O)=O (configuration not stated),inactive: -3.06%
15,C=CCn1c(=NC(=O)c2ccc(S(=O)(=O)N3CCc4ccccc4C3)cc2)sc2cc(S(N)(=O)=O)ccc21,inactive: -17.5%
16,CCOC(=O)NC(=O)CSc1nnnn1-c1ccccc1,inactive: 8.57%
17,CCOc1cc(NC(=S)NCCCN2CCOCC2)c(OCC)cc1NC(=O)CC(C)C,inactive: 105%
18,O=C(NCc1cccc(CNC(=O)c2ccco2)c1)c1ccco1,inconclusive: -57.8%
19,O=C(Nc1cc(S(=O)(=O)N2CCCCC2)ccc1O)c1ccccc1NS(=O)(=O)c1ccc(F)cc1,inconclusive: -46.4%
